We go through one substance from publication PMC10908861.

The chains behind the UniProt entries cited, without tags or fusion partners.
UniProt P21796: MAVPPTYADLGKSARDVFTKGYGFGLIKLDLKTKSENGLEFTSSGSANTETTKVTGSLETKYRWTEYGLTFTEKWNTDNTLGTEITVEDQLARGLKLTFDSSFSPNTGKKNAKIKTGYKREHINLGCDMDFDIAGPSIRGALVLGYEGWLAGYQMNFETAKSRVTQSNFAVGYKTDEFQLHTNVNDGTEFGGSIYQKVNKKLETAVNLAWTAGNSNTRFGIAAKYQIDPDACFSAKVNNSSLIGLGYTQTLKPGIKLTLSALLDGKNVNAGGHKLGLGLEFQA

No constants are given. Whether binding was seen depends on the method and setting. In cells and extracts the contact can be indirect. Some results given as binding are weak or reduced against the parent protein; the word gives no strength. Where a sequence is shown, tags or fusion partners need not be part of it.

This test concerns the target T1, uSLC35A4 protein with C-terminal Flag tag (human) (UniProt L0R6Q1).
T1 sequence: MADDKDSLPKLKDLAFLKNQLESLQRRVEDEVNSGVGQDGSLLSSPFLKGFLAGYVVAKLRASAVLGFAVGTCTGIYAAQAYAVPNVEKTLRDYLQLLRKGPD
Put plainly: co-IP; anti-Flag immunoprecipitate of cells expressing the Flag-tagged ORF peptide, western blot for endogenous proteins. (In general: Immunoblotting shows a protein as a band on a membrane.)

In the case of VDAC1 (from UniProt P21796 1-283), the binding result was “binds”.
